# Laboratory results published in the supplement of paper PMC4604168 (melanoma cell lines).
# This is one part of the list. Repeats are few or missing, and single values can be far off.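 Imaging used 1,536-well plates; nuclei positive for cleaved PARP by antibody were divided by total DNA-stained nuclei to yield the apoptosis fraction. Doses for screening kept most cells viable, and cell lines differ markedly in resting and induced cleaved-PARP levels.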
# What was measured:
# Assay in all cases: cleaved PARP positive nuclei fraction relative to DMSO control; melanoma cells; higher = more apoptosis
# Conditions in all cases: library dose: low library concentration; 72 h
# 501Mel = system: 501Mel
# A101D = system: A101D
# A2058 = system: A2058
# A375 = system: A375
# C32 = system: C32
# CBRC008 = system: CBRC008 (line from a melanoma biopsy)
# CBRC013 = system: CBRC013 (line from a melanoma biopsy)
# CBRC014 = system: CBRC014 (line from a melanoma biopsy)
# CBRC016 = system: CBRC016 (line from a melanoma biopsy)
# CBRC017 = system: CBRC017 (line from a melanoma biopsy)
# COLO792 = system: COLO792
# COLO800 = system: COLO800
# COLO829 = system: COLO829
# G361 = system: G361
# IPC-298 = system: IPC-298
# IST-MEL1 = system: IST-MEL1
# LB2518-MEL = system: LB2518-MEL
# LOXIMVI = system: LOXIMVI
# MEL-HO = system: MEL-HO
Compound,cleaved PARP positive nuclei fraction (501Mel) [%],cleaved PARP positive nuclei fraction (A101D) [%],cleaved PARP positive nuclei fraction (A2058) [%],cleaved PARP positive nuclei fraction (A375) [%],cleaved PARP positive nuclei fraction (C32) [%],cleaved PARP positive nuclei fraction (CBRC008) [%],cleaved PARP positive nuclei fraction (CBRC013) [%],cleaved PARP positive nuclei fraction (CBRC014) [%],cleaved PARP positive nuclei fraction (CBRC016) [%],cleaved PARP positive nuclei fraction (CBRC017) [%],cleaved PARP positive nuclei fraction (COLO792) [%],cleaved PARP positive nuclei fraction (COLO800) [%],cleaved PARP positive nuclei fraction (COLO829) [%],cleaved PARP positive nuclei fraction (G361) [%],cleaved PARP positive nuclei fraction (IPC-298) [%],cleaved PARP positive nuclei fraction (IST-MEL1) [%],cleaved PARP positive nuclei fraction (LB2518-MEL) [%],cleaved PARP positive nuclei fraction (LOXIMVI) [%],cleaved PARP positive nuclei fraction (MEL-HO) [%]
"COCC[n+]1c2c(n(Cc3cnccn3)c1C)C(=O)c1ccccc1C2=O + CO[C@@H]1[C@H](N(C)C(=O)c2ccccc2)C[C@H]2O[C@]1(C)n1c3ccccc3c3c4c(c5c6ccccc6n2c5c31)C(=O)NC4 [Midostaurin] (first compound 0.0004 µM, partner dose 0.08 µM)",86.6,49.9,524,244,138,458,107,95.7,83.9,73.3,209,236,112,107,116,44.1,194,201,78.1
"C[C@@H]1CCN(C(=O)CC#N)C[C@@H]1N(C)c1ncnc2[nH]ccc12 + NCC(=O)Nc1ccc(-n2nc(C(F)(F)F)cc2-c2ccc3c(ccc4ccccc43)c2)cc1 [OSU03012] (first compound 1 µM, partner dose 1 µM)",342,75.9,60.4,5820,12.4,259,152,78,66,86.8,98.9,40.3,88.8,214,156,351,171,31.4,73.1
"OCCn1cc(-c2cnc3nnn(Cc4ccc5ncccc5c4)c3n2)cn1 + Cn1cncc1[C@@](N)(c1ccc(Cl)cc1)c1ccc2c(c1)c(-c1cccc(Cl)c1)cc(=O)n2C [tipifarnib] (first compound 1 µM, partner dose 0.01 µM)",87.5,85.9,113,188,116,261,169,98,35.7,125,105,68.6,83.7,155,48.1,104,74.6,90.8,69.5
"C#Cc1cccc(Nc2ncnc3cc(OCCOC)c(OCCOC)cc23)c1 [erlotinib] + COc1cc(Nc2ncc(F)c(Nc3ccc4c(n3)NC(=O)C(C)(C)O4)n2)cc(OC)c1OC [Tamatinib] (first compound 0.8 µM, partner dose 0.4 µM)",90.5,44.9,194,107,120,555,168,111,69.8,167,136,98,121,63,27.5,106,99.4,119,69.4
"C=CCNC1=C2C[C@@H](C)C[C@H](OC)[C@H](O)[C@@H](C)/C=C(\C)[C@H](OC(N)=O)[C@@H](OC)/C=C\C=C(/C)C(=O)NC(=CC1=O)C2=O [Tanespimycin] + Cn1cncc1[C@@](N)(c1ccc(Cl)cc1)c1ccc2c(c1)c(-c1cccc(Cl)c1)cc(=O)n2C [tipifarnib] (first compound 0.002 µM, partner dose 0.01 µM)",108,96.8,143,54.8,826,1600,174,299,113,110,79,135,101,77,94.1,98.3,119,267,142
"O=C(CCCCCCC(=O)Nc1ccccc1)NO [vorinostat] + O=C(Nc1cccc(Cl)c1)Nc1ncc(CCNc2ncnc3ccsc23)s1 [SNS314] (first compound 0.08 µM, partner dose 0.0008 µM)",117,57.1,111,75.4,74.2,140,96.3,88.9,206,84.9,64.7,56.4,115,51.4,62,56.5,172,88.9,35.4
"Clc1ccc(Nc2nnc(Cc3ccncc3)c3ccccc23)cc1 [vatalanib] + O=C(CCCCCCC(=O)Nc1ccccc1)NO [vorinostat] (first compound 2 µM, partner dose 0.08 µM)",88.2,91.4,76.4,38.8,140,93.3,93.1,129,166,219,134,69.3,52.7,112,95.3,43.9,199,57.8,36.3
"C=CCn1c(=O)c2cnc(Nc3ccc(N4CCN(C)CC4)cc3)nc2n1-c1cccc(C(C)(C)O)n1 + COc1cc2c(Oc3ccc4[nH]c(C)cc4c3F)ncnc2cc1OCCCN1CCCC1 [cediranib] (first compound 0.02 µM, partner dose 0.4 µM)",85.6,110,147,67.4,165,47.7,97.2,134,41.8,184,171,29.5,61.6,100,97.2,29.8,113,105,144
"C=CCNC1=C2C[C@@H](C)C[C@H](OC)[C@H](O)[C@@H](C)/C=C(\C)[C@H](OC(N)=O)[C@@H](OC)/C=C\C=C(/C)C(=O)NC(=CC1=O)C2=O [Tanespimycin] + O=C(O)c1ccc(-c2c[nH]c3ncc(-c4ccccc4)cc23)cc1C1CCCC1 [GSK650394] (first compound 0.002 µM, partner dose 0.16 µM)",80.6,130,138,84.9,58.8,581,118,155,133,136,103,39.1,117,59.4,130,166,87.6,69,71.1
"Clc1ccc(Nc2nnc(Cc3ccncc3)c3ccccc23)cc1 [vatalanib] + O=C(O)c1ccc(-c2c[nH]c3ncc(-c4ccccc4)cc23)cc1C1CCCC1 [GSK650394] (first compound 2 µM, partner dose 0.16 µM)",146,94,96.5,120,171,402,93.8,146,235,196,144,77,145,100,47.3,80.3,92,107,103
"CC(C)(C)c1cnc(CSc2cnc(NC(=O)C3CCNCC3)s2)o1 + Cc1cc(N2CCOCC2)cc2[nH]c(-c3c(NC[C@@H](O)c4cccc(Cl)c4)cc[nH]c3=O)nc12 [BMS536924] (first compound 0.01 µM, partner dose 0.2 µM)",92.1,36,85.1,135,255,195,150,88.1,92.7,102,145,132,89,60.4,90.8,156,105,44.5,149
"CC1(C)NC(=O)N(c2ccc([N+](=O)[O-])c(C(F)(F)F)c2)C1=O [nilutamide] + NC(=O)Nc1cc(-c2cccc(F)c2)sc1C(=O)N[C@H]1CCCNC1 [AZD7762] (first compound 1 µM, partner dose 0.02 µM)",137,80.9,120,234,127,133,107,99.6,76.4,75.1,71,79.5,81.8,163,227,117,31.2,70.6,34
"Clc1ccc(Nc2nnc(Cc3ccncc3)c3ccccc23)cc1 [vatalanib] + C=CCn1c(=O)c2cnc(Nc3ccc(N4CCN(C)CC4)cc3)nc2n1-c1cccc(C(C)(C)O)n1 [MK1775] (first compound 2 µM, partner dose 0.02 µM)",110,118,51.1,390,91.5,433,99.8,160,214,101,119,215,149,178,48.5,153,102,63.4,117
"O=C(CCCCCCC(=O)Nc1ccccc1)NO [vorinostat] + CN(C)S(=O)(=O)c1ccc2c(c1)/C(=C/c1cc3c([nH]1)CCCC3)C(=O)N2 [SU6656] (first compound 0.08 µM, partner dose 0.4 µM)",175,83.3,176,255,83.1,148,70.1,88.6,206,112,57.8,93.4,139,79.8,47.4,149,52.7,16.8,133
"CO[C@@H]1[C@H](N(C)C(=O)c2ccccc2)C[C@H]2O[C@]1(C)n1c3ccccc3c3c4c(c5c6ccccc6n2c5c31)C(=O)NC4 [Midostaurin] + Cc1cc(N2CCOCC2)cc2[nH]c(-c3c(NC[C@@H](O)c4cccc(Cl)c4)cc[nH]c3=O)nc12 [BMS536924] (first compound 0.08 µM, partner dose 0.2 µM)",94.4,256,140,165,316,148,122,95.2,383,96.6,86.3,169,112,154,50.6,244,116,57.1,29.3
"OCc1c[nH]c2ccccc12 [Indole-3-carbinol] + NC(=O)Nc1cc(-c2cccc(F)c2)sc1C(=O)N[C@H]1CCCNC1 [AZD7762] (first compound 0.8 µM, partner dose 0.02 µM)",84.7,183,42.3,565,150,119,59.2,88.5,72.5,375,187,73,141,88.2,83.5,77.5,74.3,55.9,31
"Cn1c(Nc2ccc(C(F)(F)F)cc2)nc2cc(Oc3ccnc(-c4ncc(C(F)(F)F)[nH]4)c3)ccc21 + CC1(C)NC(=O)N(c2ccc([N+](=O)[O-])c(C(F)(F)F)c2)C1=O [nilutamide] (first compound 0.08 µM, partner dose 1 µM)",268,78.7,391,185,31.4,277,82.7,113,21,109,459,58,263,151,170,187,197,154,179

# As entered above.
# cleaved PARP positive nuclei fraction (G361) [%], CC(C)(C)c1cnc(CSc2cnc(NC(=O)C3CCNCC3)s2)o1 + Cc1cc(N2CCOCC2)cc2[nH]c(-c3c(NC[C@@H](O)c4cccc(Cl)c4)cc[nH]c3=O)nc12 [BMS536924] (first compound 0.01 µM, partner dose 0.2 µM) is entered as 60.4
# cleaved PARP positive nuclei fraction (CBRC013) [%], OCc1c[nH]c2ccccc12 [Indole-3-carbinol] + NC(=O)Nc1cc(-c2cccc(F)c2)sc1C(=O)N[C@H]1CCCNC1 [AZD7762] (first compound 0.8 µM, partner dose 0.02 µM) is entered as 59.2
